Results from PubChem BioAssay AID1487 (National Center for Advancing Translational Sciences (NCATS), 2009).
The list shows a part of the results. The main result of the screen is listed elsewhere. These columns were measured beside it and carry no call. Compounds called inactive in the main read-out are mostly missing here. Words in brackets tell the shape of the fitted curve; partial curves, single points and poor fits give uncertain potencies.

Assay: qHTS Assay for Modulators of Lamin A Splicing
Settings: HeLa LMNA splicing GFP/RFP minigene ratio, 48 h
Summary of the method: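 S3 HeLa stable clones carrying a lamin A-EGFP splicing minigene plus DsRed2 were seeded at 600 cells/well in Opti-MEM with 2% FBS, pin-dosed and incubated 48 h at 37°C. Acumen cytometry (488 nm) gave the GFP/RFP total-intensity ratio.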

[1] = measured here: RFP viability control channel
[2] = measured here: GFP splicing reporter channel

Structure (SMILES)	AC50 [1]	AC50 [2]
Cc1cc(N/N=C/c2ccc(O)cc2O)nc(-n2nc(C)cc2C)n1	8.91 µM [rising, partial curve, poor fit]	
O=C(CSc1nnnn1C1CC2CCC1C2)Nc1ccnc2ccccc12 (centres undefined)	0.112 µM [rising, full curve]	0.0891 µM [rising, full curve, poor fit]
CC(C(=O)NCCc1nc2ccccc2[nH]1)n1cc([N+](=O)[O-])cn1 (centres undefined)	0.282 µM [falling, full curve, poor fit]	
Cc1ccc(-c2noc(CCC(=O)NCCCN3CCN(c4ccc(F)cc4)CC3)n2)cc1	20 µM [rising, partial curve]	
Cc1ccc(S(=O)(=O)NC(C)(C)CSc2nnc(Nc3ccccc3)s2)cc1	31.6 µM [rising, single point]	
COc1ccc(S(=O)(=O)N2CCCC(C(=O)Nc3cccnc3)C2)cc1Cl (centres undefined)	12.6 µM [rising, partial curve]	
Cc1nc2cc(S(=O)(=O)N3CCC(C(=O)O)CC3)ccc2n1C1CCCC1	0.631 µM [falling, full curve]	10 µM [falling, partial curve]
CCn1c(CN2CCOCC2)nc2cc(NC(=O)c3ccc([N+](=O)[O-])cc3)ccc21	7.94 µM [falling, full curve]	
Cc1c(C(=O)N(Cc2ccc(Cl)cc2)CC2CCCO2)oc2ccc(F)cc12 (centres undefined)		0.316 µM [falling, full curve, poor fit]
Cc1cc(C)n(CC(=O)N/N=C/c2cccc([N+](=O)[O-])c2)n1	15.8 µM [rising, single point]	11.2 µM [rising, single point]
O=C(CSc1nnc(NC(=O)C2CC2)s1)Nc1ccc(F)cc1	5.62 µM [rising, partial curve]	
c1cc2c(cc1C1CCCCC1)c1c3n2CCN=C3CCC1	31.6 µM [rising, single point]	2.82 µM [falling, partial curve, poor fit]
Nc1ccccc1S(N)(=O)=O		0.0708 µM [falling, full curve, poor fit]
COc1ccccc1NS(=O)(=O)c1cc(NC(=O)C2CCCC2)ccc1N1CCOCC1	11.2 µM [rising, single point]	
O=C(N/N=C\c1cc(Cl)ccc1O)c1ccc(S(=O)(=O)N2CCCCC2)cc1	7.94 µM [rising, partial curve]	
O=C(NCc1cccnc1)NC1(C(F)(F)F)Oc2ccc(Cl)cc2O1 (centres undefined)	11.2 µM [rising, partial curve]	
N#CC1=C(SCc2ccccc2)NC(=O)CC1c1cccc(O)c1 (centres undefined)	35.5 µM [rising, single point]	
COc1ccc(-c2cc(C(F)(F)F)n3ncc(C(=O)O)c3n2)cc1OC	5.62 µM [rising, single point]	
Cc1ccc2c(c1C)NC(C(=O)O)C1CC=CC21 (centres undefined)		0.0251 µM [falling, full curve]

Structure (SMILES)	AC50 [1]	AC50 [2]
COc1ccc(NC(=O)CN2C(=O)c3ccccc3Sc3ccc(C(=O)N4CCOCC4)cc32)c(OC)c1		0.0708 µM [falling, full curve, poor fit]
O=C(Nc1ccc(Cl)c(Cl)c1)Nc1nnc(CSc2ccccc2)s1	5.62 µM [rising, single point]	
O=C(C1CC1)N1CCc2cc(Br)cc(S(=O)(=O)N3CCCCCC3)c21	10 µM [rising, partial curve, poor fit]	
c1cncc(-c2nc3c(ccc4ccccc43)[nH]2)c1		0.112 µM [rising, full curve, poor fit]
O=C(NC1CCCCC1)C1CCCN1S(=O)(=O)c1cccc2nsnc12 (centres undefined)	17.8 µM [rising, partial curve]	14.1 µM [rising, partial curve]
O=C(O)C(c1ccccc1)N1CCCC1 (centres undefined)	22.4 µM [falling, single point]	28.2 µM [falling, single point]
COc1cccc(CNC(=O)COCc2cc(-c3ccc4c(c3)OCO4)on2)c1	15.8 µM [rising, single point]	
CCC(CC)C(=O)Nc1cccc(C(=O)NCCc2ccccc2)c1	0.0158 µM [falling, full curve, poor fit]	
CC(=O)CC1OC(=O)C(Br)=C1NCc1ccccc1 (centres undefined)	35.5 µM [rising, single point]	12.6 µM [rising, partial curve]
COc1ccc(-n2c(CCc3ccccc3)nnc2SCC(=O)c2ccc(Cl)cc2)cc1	2.24 µM [rising, single point]	3.55 µM [rising, partial curve]
COC(=O)C/C=C/[C@@H](C)[C@@H](/C=N/OC[C@H]1O[C@H](c2ccccc2)C=C[C@@H]1Oc1ccc(OC)cc1)OC	11.2 µM [rising, single point]	
CCn1c(SCC(=O)N2CCN(c3cccc(Cl)c3)CC2)nc2ccccc2c1=O	35.5 µM [rising, single point]	35.5 µM [rising, single point]
O=C(CSc1nnc(CNC(=O)c2c(F)cccc2Cl)o1)NCc1ccc2c(c1)OCO2		31.6 µM [rising, single point]
CC(NC(=O)c1ccc(Br)cc1)c1ccccc1 (centres undefined)	4.47 µM [rising, full curve, poor fit]	4.47 µM [rising, full curve, poor fit]
COc1ccc(OC)c(C2C3=C(N=c4s/c(=C\c5cccc(O)c5)c(=O)n42)c2ccccc2CC3)c1 (centres undefined)	35.5 µM [rising, single point]	
COc1ccc(S(=O)(=O)N2c3ccccc3OCC2C)cc1 (centres undefined)	35.5 µM [rising, single point]	
CN1c2ccccc2N(C)C1(C)c1ccccc1	17.8 µM [rising, partial curve]	
CN(C)S(=O)(=O)c1ccc2c(c1)N(CC(=O)N1CCN(c3ccccc3F)CC1)CCS2	0.141 µM [falling, full curve, poor fit]	
CC[C@@]12CCCN3CCc4c(n(c5ccccc45)C(=O)C1)[C@H]32	14.1 µM [falling, single point]	12.6 µM [falling, single point]

Laid out differently: two of the compounds above.
CN1c2ccccc2N(C)C1(C)c1ccccc1
  AC50 [1]: 17.8 µM [rising, partial curve]
CN(C)S(=O)(=O)c1ccc2c(c1)N(CC(=O)N1CCN(c3ccccc3F)CC1)CCS2
  AC50 [1]: 0.141 µM [falling, full curve, poor fit]

The list continues:

Structure (SMILES)	AC50 [1]	AC50 [2]
CC1(c2ccccc2)CC(C)(C)N(C(=O)c2cc([N+](=O)[O-])cc([N+](=O)[O-])c2)c2ccccc21 (centres undefined)		17.8 µM [rising, partial curve]
CCOC(=O)c1oc2ccccc2c1NC(=O)CN1CCOCC1	0.00447 µM [falling, full curve, poor fit]	
COc1ccc(/C=N/NC(=O)c2ccc(N(C)S(=O)(=O)c3ccccc3)cc2)cc1		35.5 µM [falling, single point]
O=C(NCCc1ccccc1)C1CCN(S(=O)(=O)N2CCCCCC2)CC1		6.31 µM [rising, single point]
Cc1ccccc1CNC(=O)c1sc2ncnc(N(C)C3CCCCC3)c2c1C	4.47 µM [falling, partial curve, poor fit]	
COc1ccccc1NC(=O)N(Cc1ccco1)Cc1cc2ccc(C)c(C)c2[nH]c1=O	14.1 µM [rising, single point]	35.5 µM [rising, single point]
CC(C)CC(=O)NC(NC(=S)Nc1cccc2cccnc12)C(Cl)(Cl)Cl (centres undefined)	28.2 µM [rising, single point]	12.6 µM [rising, single point]
Cn1cnnc1SCC(=O)Nc1nc(-c2ccccc2)cs1	31.6 µM [falling, partial curve, poor fit]	17.8 µM [falling, partial curve, poor fit]
CN(Cc1cn(C)nc1-c1ccccc1F)Cc1nccn1C	35.5 µM [rising, single point]	
Cc1ccc(Nc2nc(N3CCOCC3)nc(N3CCOCC3)n2)cc1	35.5 µM [falling, single point]	15.8 µM [falling, single point]
COc1ccc(N2CCN(CCNC(=O)Nc3ccc(Cl)cc3)CC2)cc1	22.4 µM [rising, single point]	
O=C(NC1CCCC1)c1ccc2c(=O)n(Cc3ccccc3)c(SCc3ccccc3)nc2c1	0.02 µM [falling, full curve, poor fit]	
COc1ccc(N2CCN(CCCNC(=O)c3cc(Nc4ccccc4OC)nc4ccccc34)CC2)cc1		0.794 µM [rising, partial curve, poor fit]
O=C1C2C3c4ccccc4C(c4ccccc43)C2C(=O)N1Cc1cccnc1 (centres undefined)	17.8 µM [rising, single point]	15.8 µM [rising, partial curve, poor fit]
FC(F)(F)c1cc(-c2ccc(Cl)cc2)nc(NCc2cccnc2)n1	35.5 µM [rising, single point]	35.5 µM [rising, single point]
Cn1c(C(=O)N2CCc3ccccc3C2)cc2oc3ccccc3c21		14.1 µM [rising, partial curve, poor fit]
Cc1ccc(NC(=S)N/N=C/c2ccc([N+](=O)[O-])s2)cc1	5.01 µM [falling, partial curve, poor fit]	
CC1CCCCN1S(=O)(=O)c1cc2c3c(c1)CC(=O)N3CCC2 (centres undefined)	2.82 µM [rising, single point]	5.01 µM [rising, partial curve, poor fit]
